Our source for the binding values is article PMC5011436.

No constants are given. Whether binding was seen depends on the method and setting. In cells and extracts the contact can be indirect. Where a sequence is shown, tags or fusion partners need not be part of it.

The assay has as its target GST alone. Description: pull-down; GST or GST-Rad24 on glutathione sepharose or magnetic beads, mixed with fission yeast protein extract of Sts5-HA strains overnight at 4°C; washed with TRIS lysis buffer (50 mM TrisCl pH 7.7, 150 mM NaCl, 5 mM EDTA, 5% glycerol, 1% Triton X); anti-HA western blot; extracts of untreated cells, of orb6-as2 cells with DMSO and of orb6+ cells with DMSO or 50 μM 1-NA-PP1; only the target purified. (Immunoblotting shows a protein as a band on a membrane.)

B1: Sts5-HA (protein, UniProt O74454 1-1066)
chain: MDEEFENDFPYKVMLNQQQDPSDAQSSPTFVPSANPSLTTPWLQTTPSANRPTWLPLQQHMHQLRHTGLLPAVESSFVHGHRRSASAGVGMGNFSNQATIPSNSPAVSNMQPPTQGGQPLYPTNFFTTSVSASSDSFPNSPTVPSKFSLNPSVATSTNISPRRHAKSHSVASVSSPNSHNAVPFTPHAFVPPVNNASPLPALNTLPQLLRPRNLDAQWRPSSLSQTNSPTHAANPSFPGTIVTHNTSNFRPEGGGHRHRRSTGSLSVGSSGSGFSSGGSGNPRKNLFSPYLPQSSIPALLAERRLVTGILIVSKKNRSDAFVSVDGLDAEVFICGSKDRNRALEGDVVAIELLDVDEVWAGKLEKEENRRRKDPISTRGSFDNLRIDAVPFEVPQRSAIKARDDEQVEGQTLFLLDQKQLGADEKPKYAGHVVAVLQRAPGQVFSGTLGILRPSSAANKERQTSSGNQGSSNNSGNDKPKIVWFKPSDKRVPLIAIPTEQAPTDFLGNDQAYAQRLFLASIKRWPVTSLHPFGMLVGELGSMDSMSAQVSALLHDTGVHSEPWEGSAATSAVTALNALSDNFLNVAGCADYRSEDVFLFVKNDVSKAAVSEVKQHESNINSSSATDFVSSAFHIRPTSTGYHVGIHVTDVSRVIEPGSPLDRELQRRSIAVNLCQKSVPLFPTTLGEALSLREDKDCYTMSLLLDVSSTGKIRGTWIGWAVIRPRKAYTMKEADELLQTDARLRLFHTVSSRLRTHHLGTDVPLSRYCRLVRRWDEESCSFDPNETNLFISSAVEVLRETLLDAANRAVASHLRQEFRENAFLRTQRLPSRENCRILQSMAIQMGCVLDLSSTKSLLRSLSLIEDDTVRNILQLYYYKVTPRAVYEMQKYKGNLASQMMSLGIEDESDDLTHFTAPLERYGDIVVHYQLQLLLRGELASEKRLRVWSQAANDASRRLVISKFAQETSIHIKIFSDWAESQVWQDGLVCFVAPSYFDVFFPSLGMEKRVHLDLLNLTHVRFEEDQGILSLYDESGAVTVVKLLTSVKVKLFVQLSTPPLINVSNVEF
As to B1, the binding entry was “no binding”.
